Experimental data taken from the supplement of paper PMC11006884.
What follows is the remainder of the data, with few or none of the targets with a hit. The data scatter; read single values as rough. The list shows a part of the results, in another mix than the full data.

By UniProt entry, the sequences of proteins in these tests, tags left out. Where a name states a change or a piece, a line headed by the entry shows the natural chain unless it says otherwise.
UniProt Q8IVM0: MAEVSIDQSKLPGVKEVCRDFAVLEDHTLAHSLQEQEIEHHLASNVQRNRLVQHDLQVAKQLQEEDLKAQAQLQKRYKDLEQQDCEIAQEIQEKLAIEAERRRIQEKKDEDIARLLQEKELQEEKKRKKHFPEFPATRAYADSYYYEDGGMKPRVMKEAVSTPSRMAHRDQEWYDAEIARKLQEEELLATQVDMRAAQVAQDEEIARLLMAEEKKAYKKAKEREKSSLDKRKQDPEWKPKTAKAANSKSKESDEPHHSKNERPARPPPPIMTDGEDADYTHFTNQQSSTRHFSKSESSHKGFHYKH
UniProt Q7RTV0, whole entry, looked up: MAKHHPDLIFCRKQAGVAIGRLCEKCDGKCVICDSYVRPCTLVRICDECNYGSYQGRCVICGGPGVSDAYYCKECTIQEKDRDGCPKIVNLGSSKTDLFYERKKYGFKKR
UniProt Q86YS7: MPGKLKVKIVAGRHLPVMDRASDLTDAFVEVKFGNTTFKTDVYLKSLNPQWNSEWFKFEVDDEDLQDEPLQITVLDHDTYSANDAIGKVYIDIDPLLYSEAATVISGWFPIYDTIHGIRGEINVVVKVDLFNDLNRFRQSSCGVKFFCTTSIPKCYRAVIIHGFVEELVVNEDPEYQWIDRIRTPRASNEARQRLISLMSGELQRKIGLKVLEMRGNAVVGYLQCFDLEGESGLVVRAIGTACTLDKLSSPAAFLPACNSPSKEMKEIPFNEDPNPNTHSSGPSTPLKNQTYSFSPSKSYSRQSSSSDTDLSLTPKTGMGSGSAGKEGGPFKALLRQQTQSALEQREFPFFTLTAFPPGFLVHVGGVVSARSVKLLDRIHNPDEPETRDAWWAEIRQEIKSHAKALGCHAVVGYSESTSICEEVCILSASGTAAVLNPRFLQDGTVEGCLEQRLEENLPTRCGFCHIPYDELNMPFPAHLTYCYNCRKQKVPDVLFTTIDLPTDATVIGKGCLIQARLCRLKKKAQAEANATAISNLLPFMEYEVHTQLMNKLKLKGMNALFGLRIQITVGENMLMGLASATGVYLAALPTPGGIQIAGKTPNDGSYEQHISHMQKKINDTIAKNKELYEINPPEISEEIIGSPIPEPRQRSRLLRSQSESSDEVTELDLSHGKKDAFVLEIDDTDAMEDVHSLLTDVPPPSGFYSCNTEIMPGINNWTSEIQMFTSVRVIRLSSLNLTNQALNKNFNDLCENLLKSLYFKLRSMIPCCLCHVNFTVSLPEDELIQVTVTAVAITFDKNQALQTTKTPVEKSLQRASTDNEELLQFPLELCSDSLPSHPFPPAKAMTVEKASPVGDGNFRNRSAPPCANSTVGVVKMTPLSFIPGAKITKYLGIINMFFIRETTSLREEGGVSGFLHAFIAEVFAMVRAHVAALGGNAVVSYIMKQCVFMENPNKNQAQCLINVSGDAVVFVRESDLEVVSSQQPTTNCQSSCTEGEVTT
UniProt Q7Z7G8: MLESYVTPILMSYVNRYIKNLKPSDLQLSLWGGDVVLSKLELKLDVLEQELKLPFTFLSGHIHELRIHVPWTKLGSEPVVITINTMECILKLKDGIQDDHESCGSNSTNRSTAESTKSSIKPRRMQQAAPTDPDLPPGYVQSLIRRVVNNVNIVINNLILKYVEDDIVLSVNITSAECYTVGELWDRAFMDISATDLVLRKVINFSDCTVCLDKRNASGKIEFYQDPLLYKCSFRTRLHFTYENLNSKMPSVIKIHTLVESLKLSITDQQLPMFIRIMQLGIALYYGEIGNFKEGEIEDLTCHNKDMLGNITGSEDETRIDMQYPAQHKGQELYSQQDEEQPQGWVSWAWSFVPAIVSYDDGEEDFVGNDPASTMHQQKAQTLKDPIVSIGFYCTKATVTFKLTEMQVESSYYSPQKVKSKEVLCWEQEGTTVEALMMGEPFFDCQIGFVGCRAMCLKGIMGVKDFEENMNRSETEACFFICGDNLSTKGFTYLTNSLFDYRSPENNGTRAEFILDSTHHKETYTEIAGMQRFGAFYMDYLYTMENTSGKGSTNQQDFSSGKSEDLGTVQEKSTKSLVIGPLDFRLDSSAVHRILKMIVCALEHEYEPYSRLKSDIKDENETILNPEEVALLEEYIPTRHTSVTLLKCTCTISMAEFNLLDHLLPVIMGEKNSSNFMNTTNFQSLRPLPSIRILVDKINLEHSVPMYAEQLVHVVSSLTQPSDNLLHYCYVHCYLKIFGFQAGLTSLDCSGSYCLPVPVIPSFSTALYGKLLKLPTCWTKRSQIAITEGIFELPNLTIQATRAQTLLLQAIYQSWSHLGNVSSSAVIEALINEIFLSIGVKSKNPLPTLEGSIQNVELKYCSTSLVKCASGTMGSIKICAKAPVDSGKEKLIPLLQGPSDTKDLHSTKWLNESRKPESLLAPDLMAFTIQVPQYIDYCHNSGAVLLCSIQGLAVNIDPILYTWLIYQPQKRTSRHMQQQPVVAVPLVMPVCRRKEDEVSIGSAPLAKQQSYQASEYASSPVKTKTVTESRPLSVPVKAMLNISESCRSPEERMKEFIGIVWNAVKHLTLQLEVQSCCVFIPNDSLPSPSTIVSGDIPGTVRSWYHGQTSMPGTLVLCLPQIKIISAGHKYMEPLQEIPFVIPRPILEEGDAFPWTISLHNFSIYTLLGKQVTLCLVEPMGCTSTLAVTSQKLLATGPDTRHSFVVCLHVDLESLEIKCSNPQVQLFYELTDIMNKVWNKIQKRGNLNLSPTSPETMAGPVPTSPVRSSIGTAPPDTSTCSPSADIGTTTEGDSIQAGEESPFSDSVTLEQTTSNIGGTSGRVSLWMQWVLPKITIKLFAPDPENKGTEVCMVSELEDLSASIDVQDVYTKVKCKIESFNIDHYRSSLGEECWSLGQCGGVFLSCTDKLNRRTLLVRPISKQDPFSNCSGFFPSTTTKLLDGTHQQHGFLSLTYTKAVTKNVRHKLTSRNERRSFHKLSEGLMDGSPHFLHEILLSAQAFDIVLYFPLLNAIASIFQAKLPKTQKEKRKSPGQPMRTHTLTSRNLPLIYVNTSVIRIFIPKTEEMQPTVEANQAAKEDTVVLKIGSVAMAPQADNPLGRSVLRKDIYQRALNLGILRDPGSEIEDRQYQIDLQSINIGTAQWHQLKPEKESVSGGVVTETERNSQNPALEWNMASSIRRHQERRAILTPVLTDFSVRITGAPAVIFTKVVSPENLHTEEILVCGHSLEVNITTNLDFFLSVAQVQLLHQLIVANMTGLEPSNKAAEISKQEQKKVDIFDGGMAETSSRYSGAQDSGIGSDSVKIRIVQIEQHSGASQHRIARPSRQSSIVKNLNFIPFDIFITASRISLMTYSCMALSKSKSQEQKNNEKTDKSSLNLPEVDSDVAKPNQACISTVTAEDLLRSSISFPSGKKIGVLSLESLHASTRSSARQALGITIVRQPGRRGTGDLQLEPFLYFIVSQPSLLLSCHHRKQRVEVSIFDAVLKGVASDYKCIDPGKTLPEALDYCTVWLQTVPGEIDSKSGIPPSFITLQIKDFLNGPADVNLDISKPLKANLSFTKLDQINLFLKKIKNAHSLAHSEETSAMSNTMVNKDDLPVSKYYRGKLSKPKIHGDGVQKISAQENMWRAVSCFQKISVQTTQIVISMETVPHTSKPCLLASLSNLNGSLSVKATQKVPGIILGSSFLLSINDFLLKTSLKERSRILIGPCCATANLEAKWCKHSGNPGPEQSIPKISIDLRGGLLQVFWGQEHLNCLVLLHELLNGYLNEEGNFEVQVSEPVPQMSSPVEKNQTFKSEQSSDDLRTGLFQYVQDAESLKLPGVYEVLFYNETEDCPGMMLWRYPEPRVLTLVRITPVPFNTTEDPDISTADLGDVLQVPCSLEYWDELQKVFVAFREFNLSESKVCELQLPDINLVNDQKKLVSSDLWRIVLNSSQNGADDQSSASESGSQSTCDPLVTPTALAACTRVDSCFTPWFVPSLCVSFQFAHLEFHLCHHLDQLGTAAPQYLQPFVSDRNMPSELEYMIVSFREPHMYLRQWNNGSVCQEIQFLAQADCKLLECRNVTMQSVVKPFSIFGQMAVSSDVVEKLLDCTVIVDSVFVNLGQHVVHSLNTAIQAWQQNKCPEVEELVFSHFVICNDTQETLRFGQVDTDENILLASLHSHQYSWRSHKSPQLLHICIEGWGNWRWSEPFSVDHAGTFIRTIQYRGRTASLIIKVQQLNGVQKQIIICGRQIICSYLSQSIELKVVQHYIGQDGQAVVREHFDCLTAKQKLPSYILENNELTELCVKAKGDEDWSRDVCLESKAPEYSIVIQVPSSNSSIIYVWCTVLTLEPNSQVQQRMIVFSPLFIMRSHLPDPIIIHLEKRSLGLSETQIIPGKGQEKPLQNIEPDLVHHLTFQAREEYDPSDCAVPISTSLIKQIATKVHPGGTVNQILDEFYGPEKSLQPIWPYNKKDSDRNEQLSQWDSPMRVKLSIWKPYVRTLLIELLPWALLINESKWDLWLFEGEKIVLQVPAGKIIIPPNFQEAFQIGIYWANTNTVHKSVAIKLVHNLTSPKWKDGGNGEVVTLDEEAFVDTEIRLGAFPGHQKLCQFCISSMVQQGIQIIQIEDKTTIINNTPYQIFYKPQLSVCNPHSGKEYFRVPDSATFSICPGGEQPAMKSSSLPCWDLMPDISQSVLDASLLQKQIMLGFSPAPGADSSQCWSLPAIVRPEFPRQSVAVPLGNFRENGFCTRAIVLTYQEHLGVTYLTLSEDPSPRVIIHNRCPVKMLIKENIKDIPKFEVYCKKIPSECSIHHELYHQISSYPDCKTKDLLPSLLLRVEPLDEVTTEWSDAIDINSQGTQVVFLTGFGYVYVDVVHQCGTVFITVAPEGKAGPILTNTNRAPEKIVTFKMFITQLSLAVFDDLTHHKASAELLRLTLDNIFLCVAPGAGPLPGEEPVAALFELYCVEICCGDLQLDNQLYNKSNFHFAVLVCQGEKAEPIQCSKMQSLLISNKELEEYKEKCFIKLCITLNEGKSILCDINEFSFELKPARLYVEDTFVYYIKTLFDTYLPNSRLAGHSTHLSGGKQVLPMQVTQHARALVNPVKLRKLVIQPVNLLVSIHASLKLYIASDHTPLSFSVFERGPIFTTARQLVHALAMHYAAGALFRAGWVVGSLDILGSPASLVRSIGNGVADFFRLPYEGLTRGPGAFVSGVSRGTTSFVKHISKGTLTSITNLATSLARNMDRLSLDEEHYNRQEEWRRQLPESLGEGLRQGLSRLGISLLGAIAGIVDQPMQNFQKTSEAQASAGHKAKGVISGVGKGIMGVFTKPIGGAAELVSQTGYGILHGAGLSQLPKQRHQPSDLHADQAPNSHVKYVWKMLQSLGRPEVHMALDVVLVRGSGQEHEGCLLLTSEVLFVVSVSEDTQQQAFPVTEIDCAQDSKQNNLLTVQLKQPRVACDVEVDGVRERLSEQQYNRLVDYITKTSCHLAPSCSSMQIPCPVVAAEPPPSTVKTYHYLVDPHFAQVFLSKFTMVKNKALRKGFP
UniProt Q7Z4W1: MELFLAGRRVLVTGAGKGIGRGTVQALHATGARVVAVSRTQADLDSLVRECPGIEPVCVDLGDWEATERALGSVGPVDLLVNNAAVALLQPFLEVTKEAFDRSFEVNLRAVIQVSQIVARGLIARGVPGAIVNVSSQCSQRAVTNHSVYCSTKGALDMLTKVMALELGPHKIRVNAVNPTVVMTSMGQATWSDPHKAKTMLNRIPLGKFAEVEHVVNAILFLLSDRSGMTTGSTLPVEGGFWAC
UniProt Q8IYB7: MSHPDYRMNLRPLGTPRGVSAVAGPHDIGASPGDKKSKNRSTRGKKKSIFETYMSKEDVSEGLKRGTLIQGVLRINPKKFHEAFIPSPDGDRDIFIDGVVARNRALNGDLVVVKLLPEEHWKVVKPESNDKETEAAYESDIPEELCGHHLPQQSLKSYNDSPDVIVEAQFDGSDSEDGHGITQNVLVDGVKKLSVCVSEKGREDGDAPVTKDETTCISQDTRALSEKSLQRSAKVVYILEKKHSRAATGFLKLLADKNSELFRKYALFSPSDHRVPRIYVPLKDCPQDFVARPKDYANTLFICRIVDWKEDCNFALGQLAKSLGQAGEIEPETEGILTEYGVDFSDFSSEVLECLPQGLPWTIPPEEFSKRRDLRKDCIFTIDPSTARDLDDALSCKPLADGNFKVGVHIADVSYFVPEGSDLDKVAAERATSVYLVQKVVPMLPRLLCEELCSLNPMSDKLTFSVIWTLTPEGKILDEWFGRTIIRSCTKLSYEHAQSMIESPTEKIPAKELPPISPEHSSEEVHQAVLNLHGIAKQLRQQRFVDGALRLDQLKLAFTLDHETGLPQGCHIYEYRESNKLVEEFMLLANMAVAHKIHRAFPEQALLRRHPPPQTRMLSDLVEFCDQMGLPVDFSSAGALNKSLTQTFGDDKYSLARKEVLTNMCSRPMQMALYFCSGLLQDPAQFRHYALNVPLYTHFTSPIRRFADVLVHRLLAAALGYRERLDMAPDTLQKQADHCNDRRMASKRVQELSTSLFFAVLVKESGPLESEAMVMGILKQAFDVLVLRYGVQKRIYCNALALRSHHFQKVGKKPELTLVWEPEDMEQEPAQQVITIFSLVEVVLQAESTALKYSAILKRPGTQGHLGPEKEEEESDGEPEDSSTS

compound: COC(=O)/C=C/c1ccccc1 [methyl cinnamate]; test: log2 ratio of iodoacetamide-alkyne labeling of the cysteine site, DMSO over compound (competition); higher = stronger covalent engagement of the cysteine by the compound, active = 1 or more; settings: 500 µM; treatment time 1 h; system: HEK293T cell lysate
Outline: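 After 1 h at ambient temperature with vehicle or electrophile (500 µM), HEK293T lysate (2 mg/mL) was labelled for 1 h with iodoacetamide alkyne and clicked to sCIP-TMT reagents. Pooled samples were trypsin-digested overnight at 37 °C, streptavidin-enriched, acid-eluted and analysed by Orbitrap Eclipse LC-MS/MS with FAIMS, then quantified in FragPipe over three replicates with duplicate channels. A cysteine's log2 competition ratio is its mean control-channel over mean compound-channel reporter intensity. Cysteines quantified in only one replicate were not included.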

log2 ratio of iodoacetamide-alkyne labeling, inactive:
IRF2BP1 C280 (UniProt Q8IU81) 0.14
DCP2 C207 (UniProt Q8IU60) -0.0558
NT5DC3 C276 (UniProt Q86UY8) 0.0748
IRF2BP2 C40 (UniProt Q7Z5L9) -0.0254
UBR2 C1619 (UniProt Q8IWV8) -0.042
CCDC50 C85 (UniProt Q8IVM0) 0.27
UniProt Q7Z2Z2_C670 -0.113
UniProt Q7LBC6_C569 0.458
UniProt Q7RTV0_C11 0.063
CAND1 C1153 (UniProt Q86VP6) 0.304
ZFYVE16 C292 (UniProt Q7Z3T8) -0.0612
USP48 C145 (UniProt Q86UV5) -0.348
UniProt Q86YS7_C831 0.061
VPS13B C2907 (UniProt Q7Z7G8) 0.559
N4BP2 C1145 (UniProt Q86UW6) 0.217
UniProt Q86Y56_C365 -0.053
UniProt Q7Z2T5_C656 0.29
PHF6 C45 (UniProt Q8IWS0) -0.0475
SMC5 C726 (UniProt Q8IY18) 0.146
DCXR C150 (UniProt Q7Z4W1) 0.037
TRMT2A C270 (UniProt Q8IZ69) 0.073
FTSJ3 C197 (UniProt Q8IY81) -0.0517
SUPT6H C575 (UniProt Q7KZ85) -0.221
MAP7D3 C505 (UniProt Q8IWC1) 0.288
UniProt Q86Y56_C92 0.144
DHX30 C673 (UniProt Q7L2E3) 0.0349
RBBP6 C44 (UniProt Q7Z6E9) 0.279
SND1 C228 (UniProt Q7KZF4) 0.0662
UniProt Q7Z5K2_C94 -0.0812
DIS3L2 C146 (UniProt Q8IYB7) -0.0896
POGZ C1267 (UniProt Q7Z3K3) 0.197
ZC3HAV1 C219 (UniProt Q7Z2W4) 0.081
CAND1 C92 (UniProt Q86VP6) -0.222
PEG10 C119 (UniProt Q86TG7) -0.0124
ANKLE2 C844 (UniProt Q86XL3) -0.00862
LUZP1 C969 (UniProt Q86V48) 0.0823
FTSJ3 C577 (UniProt Q8IY81) 0.082

As a working copy, part of the list above:
log2 ratio of iodoacetamide-alkyne labeling, inactive:
UniProt Q7Z5K2_C94 -0.0812
DIS3L2 C146 (UniProt Q8IYB7) -0.0896
